Assay results published in PubChem BioAssay AID1347076 (National Center for Advancing Translational Sciences (NCATS), 2019).
Screen size: about 400,000 compounds; about 13,000 (3.2%) were called active. Inconclusive results, whose numbers are uncertain, are shown with a selection of clear calls. Calls follow the shape of the dose curve; as a rule, active = well fitted cell-killing curve with a large enough effect; inconclusive = small, poorly fitted or top-dose-only effect, or effect the other way; inactive = flat fitted curve, though single readings scatter. Where the call is inconclusive, the potency comes from a doubtful curve fit.

Assay: qHTS assay for MDR1-selective chemotherapeutics: Primary screen using the drug-selected MDR subline cells KB-V1; also: nearly all actives have a fitted effect of over 60% in size
Details: KB-V1 MDR cells viability, CellTiter-Glo, 72 h; activity change, negative = cytotoxicity: at 46.1 µM (top of the series)
Summary of the method: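 KB-V1 MDR subline cells in DMEM (phenol-red free, 10% FBS) exposed to compounds in qHTS concentration series for 72 h at 37 degrees C. Viability read by CellTiter-Glo luminescence; concentration-effect curves fitted after normalization and correction.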
% is scaled to controls: 0 for no effect and ±100 for the full control effect; potency is read from the fitted curve at half-maximal effect.

Row | SMILES | Potency | activity change, negative = cytotoxicity
1 | O=C(CN1C(=O)NC2(CCCCC2)C1=O)Nc1ccccc1Cl | inconclusive: 18.4 µM [cytotoxic, single point] | –
2 | CCCCCC1CCC(c2ccc(/C(N)=N/O)cc2)CC1 (stereo not given) | inactive | –
3 | CCCCN(CC)CCCNC(=O)c1cc2c(-c3ccc(OC)c(OC)c3)nn(C)c2s1 | inconclusive: 20.6 µM [rising, single point] | –
4 | Cc1cc2ccccc2n2c(SCC(=O)NCc3cccs3)nnc12 | inconclusive: 16.4 µM [cytotoxic, partial curve] | –
5 | CCC(=O)c1cn(CC(=O)NCc2ccco2)c2ccccc12 | inconclusive: 29.1 µM [rising, single point] | –
6 | Cc1ccc2nc3c(cc(C(N)=S)c(=N)n3CCCOC(C)C)c(=O)n2c1 | inconclusive: 11.6 µM [cytotoxic, partial curve, poor fit] | –
7 | CC(OC(=O)/C=C/c1ccccc1)C(=O)N1CCc2ccccc21 (stereo not given) | inactive | –
8 | O=C1c2oc3ccc(F)cc3c(=O)c2C(c2cccc([N+](=O)[O-])c2)N1CCCN1CCOCC1 (stereo not given) | inactive | –
9 | Cc1cccn2c(=O)c3cc(C#N)c(=O)n(CCCN4CCOCC4)c3nc12 | inconclusive: 29.1 µM [cytotoxic, single point] | –
10 | CCOc1ccc(-c2cnc(NCc3ccc(OC)cc3OC)n2C)cc1 | inactive | –
11 | CCN(CC)C(=O)Oc1ccc2c(=O)c(-c3ccc(OC)cc3)c(C)oc2c1 | active: 9.2 µM | –
12 | CCNC(=S)N/N=C(\C)c1ccc(Cl)s1 | inconclusive: 18.4 µM [cytotoxic, single point] | –
13 | COc1ccccc1S(=O)(=O)Cc1ccc(C(=O)N2CCCC2)o1 | inconclusive: 29.1 µM [rising, single point] | –
14 | COC(=O)c1ccc(C)c(NC(=O)CCSc2ccc(Cl)cc2)c1 | inconclusive: 18.4 µM [cytotoxic, single point] | –
15 | CC(=O)c1ccc(NC(=O)c2ncn(-c3ccccc3)n2)cc1 | inactive | –
16 | CC(C)(C)NC(=O)C(c1ccncc1)N(Cc1ccco1)C(=O)c1ccc(-c2ccccc2)[nH]1 (stereo not given) | inconclusive: 3.66 µM [cytotoxic, partial curve] | –
17 | CC(C)c1ccc(NC(=O)C2Cc3c(-c4cccc(F)c4)ccnc3O2)cc1 (stereo not given) | inconclusive: 25.9 µM [cytotoxic, single point] | –
18 | COc1ccc(C(C(=O)NCC2CCCO2)N(C(=O)CNC(=O)c2cccs2)c2ccc(C)cc2)cc1OC (stereo not given) | inconclusive: 1.46 µM [cytotoxic, full curve, poor fit] | –
19 | O=C(NCCCNC(=O)c1cc(Cl)ccc1Cl)c1ccccn1 | inconclusive: 5.17 µM [cytotoxic, partial curve] | –
20 | Cc1cc(NC(=O)c2ccccc2-c2ccccc2)ccc1Br | inconclusive: 29.1 µM [cytotoxic, single point] | –
21 | COCc1cc(C)n(CC(=O)Nc2ccc(Cl)cc2Cl)c(=O)c1C#N | inconclusive: 23.1 µM [cytotoxic, single point] | –
22 | CCc1ccc(CN(C(=O)c2cc3ccccc3oc2=O)C2CCS(=O)(=O)C2)cc1 (stereo not given) | inactive | –
23 | O=c1cc(Cn2ccnc2)c2cc3c(cc2o1)CCC3 | inconclusive: 23.1 µM [cytotoxic, partial curve, poor fit] | –
24 | Cc1cc(C(=O)Nc2ccccc2)c(C)o1 | inconclusive: 29.1 µM [cytotoxic, single point] | –

Sorted by formula weight (low to high): some entries from above
Row | SMILES | Potency | activity change, negative = cytotoxicity
12 | CCNC(=S)N/N=C(\C)c1ccc(Cl)s1 | inconclusive: 18.4 µM [cytotoxic, single point] | –
20 | Cc1cc(NC(=O)c2ccccc2-c2ccccc2)ccc1Br | inconclusive: 29.1 µM [cytotoxic, single point] | –
6 | Cc1ccc2nc3c(cc(C(N)=S)c(=N)n3CCCOC(C)C)c(=O)n2c1 | inconclusive: 11.6 µM [cytotoxic, partial curve, poor fit] | –
8 | O=C1c2oc3ccc(F)cc3c(=O)c2C(c2cccc([N+](=O)[O-])c2)N1CCCN1CCOCC1 (stereo not given) | inactive | –

Later entries.

Row | SMILES | Potency | activity change, negative = cytotoxicity
25 | CC(C)C[C@H](NC(=O)CCn1nnc2ccccc2c1=O)C(=O)O | inconclusive: 20.6 µM [rising, single point] | –
26 | COc1ccc(CNC(=O)COCc2cc(-c3cccs3)on2)cc1OC | inconclusive: 8.2 µM [cytotoxic, partial curve] | –
27 | Cc1cnc(CNC(=O)C2(C)CCCN2CC(C)C)cn1 (stereo not given) | inactive | –
28 | CN(c1ccc(O)cc1)c1nc(O)c(C2=c3ccccc3=NC2=O)s1 | inactive | –
29 | CCCN(CCc1ccccc1)C1CCc2c(O)cccc2C1 (stereo not given) | inconclusive: 25.9 µM [cytotoxic, single point] | –
30 | CC1=C([N+](=O)[O-])C(c2ccccc2Cl)NC(=O)N1C (stereo not given) | inconclusive: 0.651 µM [rising, full curve, poor fit] | –
31 | FC(F)(F)c1cc(CCN2C(=S)NC[C@@H]2Cc2ccccc2)cc(C(F)(F)F)c1 | inconclusive: 18.4 µM [cytotoxic, single point] | –
32 | CCc1nnc(NC(=O)CSCc2cc(=O)c3ccc(C)cc3[nH]2)s1 | inconclusive: 20.6 µM [rising, single point] | –
33 | CCCCOc1ccc(C(=O)N/C(=C\c2cccc([N+](=O)[O-])c2)C(=O)OCCC)cc1 | inactive | –
34 | COc1ccc(OC)c(S(=O)(=O)N2CCN(CC(O)COc3ccccc3)CC2)c1 (stereo not given) | inconclusive: 8.2 µM [cytotoxic, partial curve] | –
35 | COc1cc(N=Nc2ccccc2C(=O)O)ccc1O | inactive | –
36 | O=C(NCCN1CCOCC1)c1ccc(/C=C2\Sc3ccccc3N(Cc3ccc(F)cc3)C2=O)cc1 | inconclusive: 18.4 µM [cytotoxic, single point] | –
37 | Cc1ccc(S(=O)(=O)CCSc2nc(C)cc(C)c2C#N)cc1 | inconclusive: 7.31 µM [cytotoxic, partial curve] | –
38 | COc1cc(NC(=O)c2cnn(-c3cccc(F)c3)c2C2CCNCC2)cc(OC)c1OC | inconclusive: 11.6 µM [rising, single point] | –
39 | Cc1ccc(C)c(NC(=O)CCCn2nc(C)c3sc4ccccc4c3c2=O)c1 | inconclusive: 29.1 µM [rising, single point] | –
40 | COc1cc2c(cc1NC(=O)COC(=O)CNC(=O)c1ccccc1)oc1ccccc12 | inactive | –
41 | COc1cccc(C(=O)Nc2nnc(-c3cccs3)o2)c1 | inconclusive: 29.1 µM [cytotoxic, partial curve, poor fit] | –
42 | Cc1cccc(NC(=O)C2C(c3ccccc3)C2(Cl)Cl)c1C (stereo not given) | inconclusive: 14.6 µM [cytotoxic, partial curve] | –
43 | COc1cnc(-c2ccccn2)nc1Sc1ccc(C)cc1 | inactive | –
44 | O=C(COc1ccc(S(=O)(=O)NC2CCCC2)cc1)N1CCCCCC1 | inactive | –
45 | Cc1nc2ccc(NC(=O)COc3ccccc3)cc2s1 | inconclusive: 18.4 µM [cytotoxic, single point] | –
46 | CCCN(CCC)CCNC(=O)c1cc2c(-c3ccccc3F)nn(C)c2s1 | inconclusive: 1.84 µM [cytotoxic, full curve, poor fit] | –
47 | CCC(C)NC(=O)CC(NS(=O)(=O)c1ccc(C)cc1)c1ccc(OC)cc1 (stereo not given) | active: 8.2 µM | –
48 | NC(N)=N/N=C/c1ccc(Cl)c(Cl)c1 | active: 20.6 µM | –

Row | SMILES | Potency | activity change, negative = cytotoxicity
49 | Nc1nc(SCc2ccc(Cl)cc2Cl)nc2nc3c(cc12)CCCC3 | inconclusive: 23.1 µM [cytotoxic, single point] | –
50 | COc1ccc(NC(=O)CN(Cc2ccccc2)S(=O)(=O)c2ccc3nc(C)sc3c2)cc1 | inconclusive: 0.0065 µM [cytotoxic, full curve, poor fit] | –
51 | COc1ccccc1N1CCN(C(=O)c2oc3cc(C)cc(C)c3c2C)CC1 | inconclusive: 14.6 µM [cytotoxic, partial curve] | –
52 | O=C(NNC(=O)c1ccc2nonc2c1)Nc1ccc(Cl)cc1 | – | inconclusive: 31.1%
53 | COc1cc(CNCCO)cc(Br)c1OCc1ccccc1Cl | inconclusive: 10.3 µM [cytotoxic, partial curve] | –
54 | CC(=O)Nc1cc(C(=O)OC(C(=O)c2ccccc2)c2ccccc2)ccc1C (stereo not given) | active: 16.4 µM | –
55 | Cc1ccc(NC(=O)C2CCCC2)cc1S(=O)(=O)N1CCOCC1 | inconclusive: 16.4 µM [cytotoxic, single point] | –
56 | COc1ccc(OC)c(NC(=O)CSc2nnc(C3CCCCC3)n2-c2ccccc2)c1 | inconclusive: 13 µM [cytotoxic, partial curve] | –
57 | O=C(CSc1oc(-c2ccco2)nc1S(=O)(=O)c1ccc(Cl)cc1)c1ccc(Cl)cc1 | inactive | –
58 | CCCC(=O)NNC(=O)c1c(O)c2ccccc2[nH]c1=O | inconclusive: 29.1 µM [cytotoxic, single point] | –
59 | CCOc1ccccc1NC(=O)CC1Nc2ccccc2NC1=O (stereo not given) | inactive | –
60 | CCNC(=O)c1ccccc1-c1nc(-c2ccccc2OC)no1 | inactive | –
61 | Cc1ccc(NC(=O)COC(=O)c2ccc(-n3cccn3)cc2)cc1C | inconclusive: 29.1 µM [rising, partial curve, poor fit] | –
62 | C=C(C)CN(CC)c1nc(N)c2c(N)nc3c(c2c1C#N)CC(=O)N3C12CC3CC(CC(C3)C1)C2 | inconclusive: 4.61 µM [cytotoxic, partial curve] | –
63 | COc1ccc(S(=O)(=O)N2CCC(C(=O)Nc3ccccc3N3CCCCC3)CC2)cc1OC | inconclusive: 1.84 µM [cytotoxic, full curve] | –
64 | Cc1ccc(CN2c3ccccc3S(=O)(=O)c3ccccc32)cc1 | inactive | –
65 | CCOCCCNC(=S)N1CCC(C(=O)c2ccc(C)cc2)CC1 | inconclusive: 20.6 µM [cytotoxic, single point] | –
66 | Cc1ccc2c(c1)c1c(c(=O)n(Cc3ccccc3)c(=O)n1CC(=O)Nc1ccccc1C)n2C | inactive | –
67 | COc1ccc(OC)c(NC(=S)NC(=O)c2ccc(Br)o2)c1 | inconclusive: 23.1 µM [rising, single point] | –
68 | Cc1ccc(NC(=O)Cn2c(-c3ccc4c(c3)OCO4)cn(-c3ccccc3)c2=O)cc1 | inactive | –
69 | CCOC(=O)C1=C(C)NC(=S)NC1c1ccc(-c2ccc(Cl)cc2)o1 (stereo not given) | active: 8.2 µM | –
70 | COCCNC(=S)N(Cc1cccnc1)Cc1ccc(OC)c(OC)c1 | inconclusive: 23.1 µM [cytotoxic, partial curve] | –
